Drawing on publication PMC9033857, this text covers binding for three molecules.

Test in all cases: FRET or BRET; single-molecule FRET between the two protomers; SNAP-tags labelled with DY-549P1 and Alexa-647 on live cells; receptors from IGEPAL lysate held on a PEG surface by biotinylated FLAG antibody; 10 mM EDTA, 10 mM Ca2+ or 10 mM Ca2+ + 5 mM L-Trp; room temperature, pH 7.35
(In general: BRET reads energy transfer from a luciferase to a nearby fluorophore.)

The target in experiment [1] is CaSR construct with an N-terminal SNAP-tag and a C-terminal FLAG-tag (mouse) (UniProt Q9QY96).
The target of experiment [2] is SNAP-tagged CaSR C131G (mouse) (UniProt Q9QY96).
In experiment [3] the target is SNAP-tagged CaSR C129S (mouse) (UniProt Q9QY96).

No constants are given. Whether binding was seen depends on the method and setting. In cells and extracts the contact can be indirect. Some entries that bind do so weakly or less than the wild type. Sequences can lack the tags named with a protein.

B1: CaSR construct with an N-terminal SNAP-tag and a C-terminal FLAG-tag (receptor, UniProt Q9QY96 20-1079)
chain: YGPDQRAQKKGDIILGGLFPIHFGVAAKDQDLKSRPESVECIRYNFRGFRWLQAMIFAIEEINSSPALLPNMTLGYRIFDTCNTVSKALEATLSFVAQNKIDSLNLDEFCNCSEHIPSTIAVVGATGSGVSTAVANLLGLFYIPQVSYASSSRLLSNKNQFKSFLRTIPNDEHQATAMADIIEYFRWNWVGTIAADDDYGRPGIEKFREEAEERDICIDFSELISQYSDEEEIQQVVEVIQNSTAKVIVVFSSGPDLEPLIKEIVRRNITGRIWLASEAWASSSLIAMPEYFHVVGGTIGFGLKAGQIPGFREFLQKVHPRKSVHNGFAKEFWEETFNCHLQDGAKGPLPVDTFVRSHEEGGNRLLNSSTAFRPLCTGDENINSVETPYMDYEHLRISYNVYLAVYSIAHALQDIYTCLPGRGLFTNGSCADIKKVEAWQVLKHLRHLNFTNNMGEQVTFDECGDLVGNYSIINWHLSPEDGSIVFKEVGYYNVYAKKGERLFINEGKILWSGFSREVPFSNCSRDCQAGTRKGIIEGEPTCCFECVECPDGEYSGETDASACDKCPDDFWSNENHTSCIAKEIEFLAWTEPFGIALTLFAVLGIFLTAFVLGVFIKFRNTPIVKATNRELSYLLLFSLLCCFSSSLFFIGEPQDWTCRLRQPAFGISFVLCISCILVKTNRVLLVFEAKIPTSFHRKWWGLNLQFLLVFLCTFMQIVICIIWLYTAPPSSYRNHELEDEIIFITCHEGSLMALGSLIGYTCLLAAICFFFAFKSRKLPENFNEAKFITFSMLIFFIVWISFIPAYASTYGKFVSAVEVIAILAASFGLLACIFFNKVYIILFKPSRNTIEEVRSSTAAHAFKVAARATLRRPNISRKRSSSLGGSTGSIPSSSISSKSNSEDRFPQPERQKQQQPLALTQQEQQQQPLTLQPQQQQQPQQPRCKQKVIFGSGTVTFSLSFDEPQKNAMAHRNSMRQNSLEAQKSNDTLNRHQALLPLQCAEADSEMTIQETGLQGPMVGDHQPEIESPDEMSPALVMSTSRSFVISGGGSSVTENILHS
modifications: SNAP-tag labelled with benzylguanine DY-549P1 or benzylguanine Alexa-647
With B1, the binding entry in experiment [1] is given as “binds”.

B2: SNAP-tagged CaSR C131G (receptor, UniProt Q9QY96 20-1079)
chain: YGPDQRAQKKGDIILGGLFPIHFGVAAKDQDLKSRPESVECIRYNFRGFRWLQAMIFAIEEINSSPALLPNMTLGYRIFDTCNTVSKALEATLSFVAQNKIDSLNLDEFCNGSEHIPSTIAVVGATGSGVSTAVANLLGLFYIPQVSYASSSRLLSNKNQFKSFLRTIPNDEHQATAMADIIEYFRWNWVGTIAADDDYGRPGIEKFREEAEERDICIDFSELISQYSDEEEIQQVVEVIQNSTAKVIVVFSSGPDLEPLIKEIVRRNITGRIWLASEAWASSSLIAMPEYFHVVGGTIGFGLKAGQIPGFREFLQKVHPRKSVHNGFAKEFWEETFNCHLQDGAKGPLPVDTFVRSHEEGGNRLLNSSTAFRPLCTGDENINSVETPYMDYEHLRISYNVYLAVYSIAHALQDIYTCLPGRGLFTNGSCADIKKVEAWQVLKHLRHLNFTNNMGEQVTFDECGDLVGNYSIINWHLSPEDGSIVFKEVGYYNVYAKKGERLFINEGKILWSGFSREVPFSNCSRDCQAGTRKGIIEGEPTCCFECVECPDGEYSGETDASACDKCPDDFWSNENHTSCIAKEIEFLAWTEPFGIALTLFAVLGIFLTAFVLGVFIKFRNTPIVKATNRELSYLLLFSLLCCFSSSLFFIGEPQDWTCRLRQPAFGISFVLCISCILVKTNRVLLVFEAKIPTSFHRKWWGLNLQFLLVFLCTFMQIVICIIWLYTAPPSSYRNHELEDEIIFITCHEGSLMALGSLIGYTCLLAAICFFFAFKSRKLPENFNEAKFITFSMLIFFIVWISFIPAYASTYGKFVSAVEVIAILAASFGLLACIFFNKVYIILFKPSRNTIEEVRSSTAAHAFKVAARATLRRPNISRKRSSSLGGSTGSIPSSSISSKSNSEDRFPQPERQKQQQPLALTQQEQQQQPLTLQPQQQQQPQQPRCKQKVIFGSGTVTFSLSFDEPQKNAMAHRNSMRQNSLEAQKSNDTLNRHQALLPLQCAEADSEMTIQETGLQGPMVGDHQPEIESPDEMSPALVMSTSRSFVISGGGSSVTENILHS
modifications: SNAP-tag labelled with benzylguanine DY-549P1 or benzylguanine Alexa-647
On to B2, for which, in experiment [2], the binding result is “binds”.

B3: SNAP-tagged CaSR C129S (receptor, UniProt Q9QY96 20-1079)
chain: YGPDQRAQKKGDIILGGLFPIHFGVAAKDQDLKSRPESVECIRYNFRGFRWLQAMIFAIEEINSSPALLPNMTLGYRIFDTCNTVSKALEATLSFVAQNKIDSLNLDEFSNCSEHIPSTIAVVGATGSGVSTAVANLLGLFYIPQVSYASSSRLLSNKNQFKSFLRTIPNDEHQATAMADIIEYFRWNWVGTIAADDDYGRPGIEKFREEAEERDICIDFSELISQYSDEEEIQQVVEVIQNSTAKVIVVFSSGPDLEPLIKEIVRRNITGRIWLASEAWASSSLIAMPEYFHVVGGTIGFGLKAGQIPGFREFLQKVHPRKSVHNGFAKEFWEETFNCHLQDGAKGPLPVDTFVRSHEEGGNRLLNSSTAFRPLCTGDENINSVETPYMDYEHLRISYNVYLAVYSIAHALQDIYTCLPGRGLFTNGSCADIKKVEAWQVLKHLRHLNFTNNMGEQVTFDECGDLVGNYSIINWHLSPEDGSIVFKEVGYYNVYAKKGERLFINEGKILWSGFSREVPFSNCSRDCQAGTRKGIIEGEPTCCFECVECPDGEYSGETDASACDKCPDDFWSNENHTSCIAKEIEFLAWTEPFGIALTLFAVLGIFLTAFVLGVFIKFRNTPIVKATNRELSYLLLFSLLCCFSSSLFFIGEPQDWTCRLRQPAFGISFVLCISCILVKTNRVLLVFEAKIPTSFHRKWWGLNLQFLLVFLCTFMQIVICIIWLYTAPPSSYRNHELEDEIIFITCHEGSLMALGSLIGYTCLLAAICFFFAFKSRKLPENFNEAKFITFSMLIFFIVWISFIPAYASTYGKFVSAVEVIAILAASFGLLACIFFNKVYIILFKPSRNTIEEVRSSTAAHAFKVAARATLRRPNISRKRSSSLGGSTGSIPSSSISSKSNSEDRFPQPERQKQQQPLALTQQEQQQQPLTLQPQQQQQPQQPRCKQKVIFGSGTVTFSLSFDEPQKNAMAHRNSMRQNSLEAQKSNDTLNRHQALLPLQCAEADSEMTIQETGLQGPMVGDHQPEIESPDEMSPALVMSTSRSFVISGGGSSVTENILHS
modifications: SNAP-tag labelled with benzylguanine DY-549P1 or benzylguanine Alexa-647
As to B3, the binding entry in experiment [3] is on record as “binds”.
